This is one part of the list.

Chains of the proteins cited; added tags and fusions are not shown.
UniProt Q0JBA9, entry or part of it: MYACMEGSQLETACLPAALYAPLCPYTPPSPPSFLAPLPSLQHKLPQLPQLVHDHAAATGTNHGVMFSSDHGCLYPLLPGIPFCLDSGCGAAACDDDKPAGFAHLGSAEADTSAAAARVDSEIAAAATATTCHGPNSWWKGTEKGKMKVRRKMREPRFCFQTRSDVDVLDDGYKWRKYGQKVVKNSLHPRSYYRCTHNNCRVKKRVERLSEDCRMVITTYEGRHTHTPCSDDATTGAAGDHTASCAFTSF

This assay concerns the target OsWRKY34 (Oryza sativa, UniProt Q0JBA9 1-250). In words: protein-binding microarray (RPBM); PBS, 2% BSA, 51.3 ng/ul salmon testes DNA, 50 uM zinc acetate, 200 nM TF, 25 C, 1 h; high values mean tight binding. To be noted: protein: recombinant; tags: N-terminal polyhistidine and DsRed monomer fusion (pET32a); label: CyDye5-dUTP incorporated in the synthesized complementary strand; 3' TTTTT single-stranded linker to array surface; dsDNA, one strand shown. In outline: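 Using Ni–NTA, transcription factors fused N-terminally to polyhistidine and DsRed were purified after expression in E. coli BL21-CodonPlus. These were incubated at 200 nM with a blocked, double-stranded custom Agilent array for 1 h at 25 °C in a buffer containing 50 µM zinc acetate, and the array was washed. The binding signal is per-feature fluorescence intensity (arbitrary units) on an Axon 4000B scanner.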
Take “GGGGCCCACTTCGGTGGCCCCGCCCGCGGTATTTATTTTTCGGAGTCACCTAGTGCAG”: the binding signal was 8380 fluorescence intensity (a.u.).

Take “GTCGGCCACCTAAAGGTTTTTTTTTTCCTTTTTTTTTCTTCGGAGTCACCTAGTGCAG”: the binding signal is 8900 fluorescence intensity (a.u.).

For the sequence “TCGCTCTTTCGGGTTGGGTGCTGGATTCCATCTTGTATGCCGGAGTCACCTAGTGCAG”, the binding signal was 13300 fluorescence intensity (a.u.).

For “TATGTAGTCCACAGCTCTCCTCTTTCTTCCTTTATCTCTTCGGAGTCACCTAGTGCAG”, the binding signal is 9200 fluorescence intensity (a.u.).

On to “AAGTGCAGTTTTGTATTATTCACGTTCAACGTTTGACCACCGGAGTCACCTAGTGCAG”, for which the binding signal was 9470 fluorescence intensity (a.u.).

For “TCTATACTCTACTTCCAATATTCCTTATTTTTTTAATTCCCGGAGTCACCTAGTGCAG”, the binding signal was 8900 fluorescence intensity (a.u.).

Regarding “TGCACCACTGCTGCCGTTATCGCTTCCCGCACCTGACAAGCGGAGTCACCTAGTGCAG”, the binding signal was 8100 fluorescence intensity (a.u.).

With “GCCCCATCAGCTTGCGGCAGTGCGTCGTCGACGATAAAGGCGGAGTCACCTAGTGCAG”, the binding signal is 8220 fluorescence intensity (a.u.).

Regarding “CTCTAAATTTGTTCGTCCGTGTCGTCCAGGTCACCAAACTCGGAGTCACCTAGTGCAG”, the binding signal is 9420 fluorescence intensity (a.u.).

For “CCTTTGGCCACTGCTTTGCTCTTTTGACACAACATACTCACGGAGTCACCTAGTGCAG”, the binding signal is 9680 fluorescence intensity (a.u.).

As to “CTCCTCCGTTGACCGCCACCGTTGACCTCCCCGCCGGCGACGGAGTCACCTAGTGCAG”, the binding signal was 16300 fluorescence intensity (a.u.).

Take “TTGGTGAGGGTTTGGGTTTGGTGGTGGAGTGGAGTGGAGTCGGAGTCACCTAGTGCAG”: the binding signal is 10700 fluorescence intensity (a.u.).

Consider “ACAGCCCATACCTTACCATGCATCTGCATGCAGCAGCAGACGGAGTCACCTAGTGCAG”, for which the binding signal is 8260 fluorescence intensity (a.u.).

With “GCGTCGCCTGCCGCCTCCGCTTCCGCTCCACTCCGCTTCGCGGAGTCACCTAGTGCAG”, the binding signal is 12000 fluorescence intensity (a.u.).

As to “TCGCTGCCCATCACTTCGCCATCCTCGCCGACGCCGACGCCGGAGTCACCTAGTGCAG”, the binding signal was 8630 fluorescence intensity (a.u.).

In the case of “TTCCGTTACCCTTTTGCCTCGTACTGGCACCTATATAGCCCGGAGTCACCTAGTGCAG”, the binding signal is 8930 fluorescence intensity (a.u.).

For “CTCTCTCTGTTTTCTCTCCTCCCTTCCTTCCTGTCGCTCTCGGAGTCACCTAGTGCAG”, the binding signal is 9060 fluorescence intensity (a.u.).

Take “TCTTTTGTACCCTTATCAGTATTCAGGCTATGCTGTAATGCGGAGTCACCTAGTGCAG”: the binding signal was 8490 fluorescence intensity (a.u.).

As for “CTCCATCCTAAAATGTTTGACGCCGTTGACTTTTTTAAATCGGAGTCACCTAGTGCAG”, the binding signal was 24500 fluorescence intensity (a.u.).

Turning to “TCTCTCTCTCTCTCTCCATCGCTCTCACTTTCTCTCTCCTCGGAGTCACCTAGTGCAG”, the binding signal was 10300 fluorescence intensity (a.u.).

Consider “ATCTCCATCTTCATCTTCAATATTCAAACACCACCGTAGTCGGAGTCACCTAGTGCAG”, for which the binding signal was 9790 fluorescence intensity (a.u.).

“GTAGTCATCCATGATCCATGCTTGTACGTGTGCTAGTGCTCGGAGTCACCTAGTGCAG”: the binding signal is 8430 fluorescence intensity (a.u.).

For “TTGGCTTGTAGTAGTTGCATTTTTTTACCAGTTTTCGTTTCGGAGTCACCTAGTGCAG”, the binding signal was 14800 fluorescence intensity (a.u.).

For the sequence “GTCACTTGGCGCCTCTTTCACCTCTCGCATGGCCGCCAAACGGAGTCACCTAGTGCAG”, the binding signal was 8610 fluorescence intensity (a.u.).

On to “CTTTATATTTACGGGGTGTGGATGATGCTTTTGACGTGTGCGGAGTCACCTAGTGCAG”, for which the binding signal was 8930 fluorescence intensity (a.u.).

For the sequence “TTGTATTCTTCCAAGTTACTTGCATGTCTGAAACAATTTACGGAGTCACCTAGTGCAG”, the binding signal is 9920 fluorescence intensity (a.u.).

“CCCCATCATTTCTTGCTTCCTCAGCTGCTTCTTCCTCCTTCGGAGTCACCTAGTGCAG”: the binding signal is 11900 fluorescence intensity (a.u.).

In the case of “CTCTCTCTCTCTCTTCACGCTTCCCACGCGCGACACGAGGCGGAGTCACCTAGTGCAG”, the binding signal was 8240 fluorescence intensity (a.u.).

Turning to “GTCTTTTTTGCTGTTGGGTCCCTTGAAGAGTTTGTATTTACGGAGTCACCTAGTGCAG”, the binding signal was 9300 fluorescence intensity (a.u.).

Turning to “CCATCGAAGTTTCAAATTTTACTGTTCTATGTGTTCATTCCGGAGTCACCTAGTGCAG”, the binding signal is 9980 fluorescence intensity (a.u.).

Regarding “ATGTACTCCCTCCGTTTCAAAATGTTTGACACCGTTGACTCGGAGTCACCTAGTGCAG”, the binding signal is 12300 fluorescence intensity (a.u.).

Take “TGGTTTATTGTATCATCTCGGTCTAAAGCTGCGTTTGACCCGGAGTCACCTAGTGCAG”: the binding signal is 8860 fluorescence intensity (a.u.).

Regarding “CATGCAGAAGTTGTGTTATTCTTTTTTGGGTGATTTTTTTCGGAGTCACCTAGTGCAG”, the binding signal was 8820 fluorescence intensity (a.u.).

For the sequence “GCATTGTAGCTAGGGGCCTATTGTAGACCTTATGAGTTTTCGGAGTCACCTAGTGCAG”, the binding signal was 8830 fluorescence intensity (a.u.).

“TATGGGCCATCTATTTATTTGTCAAGTGTCTGGCTTTTTCCGGAGTCACCTAGTGCAG”: the binding signal was 11300 fluorescence intensity (a.u.).

In the case of “GTAAAACTTCGCCACCGCTAATCGATTAACTTCGCCACCGCGGAGTCACCTAGTGCAG”, the binding signal was 9080 fluorescence intensity (a.u.).

On to “AACCGCTCGCCTTAAATTCTCCAAACCGAAAACCATTTCCCGGAGTCACCTAGTGCAG”, for which the binding signal is 8890 fluorescence intensity (a.u.).

Consider “ACTGGTATTTGTCTGGCTCAAATCCTTTATCCAGTAATCTCGGAGTCACCTAGTGCAG”, for which the binding signal was 8960 fluorescence intensity (a.u.).

As to “ACTTTTCTGTTTGTGTTTTCTGCGGTTTAAAAGTTAGTGTCGGAGTCACCTAGTGCAG”, the binding signal is 12700 fluorescence intensity (a.u.).

Take “ATGGTCTCAGTTTTTTTTTGCTAGTGAACAGGAGGTTGTTCGGAGTCACCTAGTGCAG”: the binding signal is 8680 fluorescence intensity (a.u.).

In the case of “AAAACCCTAGCTCTAGCCCATTCCGCCGCCCTCTCGCTCTCGGAGTCACCTAGTGCAG”, the binding signal is 8250 fluorescence intensity (a.u.).

With “AACCCATGTCATCAATGTTGAGCTGTCCCGTGATTTGTTCCGGAGTCACCTAGTGCAG”, the binding signal is 10000 fluorescence intensity (a.u.).

As to “GCGTAACCACCTTTCTTCCATTAATTTTGACAATTTGACCCGGAGTCACCTAGTGCAG”, the binding signal was 9060 fluorescence intensity (a.u.).

Take “CACCCTCCTCCACATCGCCGCTGGTCGTCGCTGCTCCGCGCGGAGTCACCTAGTGCAG”: the binding signal was 8280 fluorescence intensity (a.u.).

On to “CGATCTCAGCTGTCACTCACTATGTGGTTCATCTAACTGACGGAGTCACCTAGTGCAG”, for which the binding signal was 9510 fluorescence intensity (a.u.).

On to “AGAAATGGGGTTACTTACCATTCAACGCCGCTCTCACTCTCGGAGTCACCTAGTGCAG”, for which the binding signal was 8760 fluorescence intensity (a.u.).

With “CACACACGAGACAATGGGGTAATTCTTTGTTTTAGATTCACGGAGTCACCTAGTGCAG”, the binding signal was 8630 fluorescence intensity (a.u.).

Regarding “TCTTTCATTGAAACCTTTCGCTATATATTTCTAGTCATTTCGGAGTCACCTAGTGCAG”, the binding signal was 9220 fluorescence intensity (a.u.).

“ATCTTTACTAAACTTCGACTGGCTTTACGCCGGTCCCAGACGGAGTCACCTAGTGCAG”: the binding signal was 8480 fluorescence intensity (a.u.).

“GCACGATCCATCCATCCACGCCACGCTGAATACTTCGCTCCGGAGTCACCTAGTGCAG”: the binding signal was 8700 fluorescence intensity (a.u.).

On to “TGTGGCTGTCCGATTTGAGGGCATTTGTTTCCGTCTTTTTCGGAGTCACCTAGTGCAG”, for which the binding signal was 9790 fluorescence intensity (a.u.).

As for “CCCTCGCCTGCTCCGGTCGCCGCCGCTTTGCCGGCCTACTCGGAGTCACCTAGTGCAG”, the binding signal is 8230 fluorescence intensity (a.u.).

As to “ACCTCGCCGCGTCGGCTGCTCCGAATGGTGGTCGGTCTCCCGGAGTCACCTAGTGCAG”, the binding signal is 8660 fluorescence intensity (a.u.).

As to “TTCCAACAATGCGCCCACGTCCGGGTAACATCCGGCGCTTCGGAGTCACCTAGTGCAG”, the binding signal was 8300 fluorescence intensity (a.u.).

(Values after paper PMC7819943, “Rice protein-binding microarrays: a tool to detect cis-acting elements near promoter regions in rice”.)
